Measured values published in PubChem BioAssay AID1439 (NMMLSC, 2008).
The campaign covered roughly 220,000 compounds. About 770 (0.35%) were called active. Inconclusive results, whose numbers are uncertain, are shown with a selection of clear calls. No stated cut-off is given here; in the data, active means binding response below about 49% or above about 150%; inconclusive means no clear call, values can overlap the other calls; inactive means in between.

Chains of the proteins cited; added tags and fusions are not shown.
UniProt P09471, whole entry, looked up: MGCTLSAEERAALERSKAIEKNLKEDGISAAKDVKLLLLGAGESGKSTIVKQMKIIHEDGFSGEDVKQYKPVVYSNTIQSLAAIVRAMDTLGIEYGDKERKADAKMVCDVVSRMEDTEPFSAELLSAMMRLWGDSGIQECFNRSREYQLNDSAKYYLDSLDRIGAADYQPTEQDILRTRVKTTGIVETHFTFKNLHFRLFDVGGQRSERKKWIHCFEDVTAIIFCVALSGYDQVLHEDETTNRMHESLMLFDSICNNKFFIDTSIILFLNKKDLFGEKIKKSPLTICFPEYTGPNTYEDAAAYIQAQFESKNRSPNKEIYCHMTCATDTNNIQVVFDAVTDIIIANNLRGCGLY

Target: Guanine nucleotide-binding protein G(o) subunit alpha (Homo sapiens) (UniProt P09471)
Assay: RGS7-Galphao binding modulators, primary screen, biochemical, multiplexed bead flow cytometry (AID 1439);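 further: fluorescent Galphao held in activated GDP-AlF4 state binding bead-coupled RGS7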
Conditions: at 10 µM, actives lie on both sides

SMILES | binding response (% of control)
C=CCN1C=C2C(=O)C(C)(OC(=O)C3CCCC3)C(=O)C(c3ccccc3)=C2C=C1CCCC(=O)OC (configuration not stated) | inconclusive: 100%
C=CCNC(=O)NC(=O)COC(=O)/C=C/c1cccc([N+](=O)[O-])c1 | inconclusive: 119%
OCCNCc1cccc2ccccc12 | inconclusive: 90%
COc1ccc2nc(Cl)c(C#N)cc2c1 | inactive: 97.4%
O=C(NCc1ccc2c(c1)OCO2)c1ccc(Br)s1 | inconclusive: 76%
COc1ccc(C2c3ccc(O)cc3Oc3ncn(Cc4ccco4)c(=N)c32)cc1OC (configuration not stated) | inconclusive: 89.1%
FC(F)(F)c1cccc(-c2nn[nH]n2)c1 | inconclusive: 115%
CC(/C=C\c1ccccc1)=C/C(=O)O | inconclusive: 114%
NCCCC[C@H]1CNC(=O)C(=O)N1CCc1cc(C(F)(F)F)cc(C(F)(F)F)c1 | inconclusive: 122%
CC(NC(=O)c1cn(C(C)c2ccccc2F)nn1)c1ccncc1 (configuration not stated) | inactive: 95.7%
COc1ccc(N2CCN(C(CNC(=O)C(=O)NCCCn3ccnc3)c3ccco3)CC2)cc1 (configuration not stated) | inconclusive: 96.8%
COc1ccc(NS(=O)(=O)c2cc(NC(=O)c3cccnc3Cl)ccc2N2CCCC2)cc1 | inconclusive: 118%
CC(=O)Nc1ccc(/C=N/NC(=O)c2cccs2)cc1 | inactive: 99.9%
Cc1ccc(NC(=O)CSc2nnc(C)n2CC2CCCO2)cc1 (configuration not stated) | inconclusive: 84.7%
CN(C)S(=O)(=O)N1CCN(c2ccc([N+](=O)[O-])c(N3CCOCC3)c2)CC1 | inconclusive: 107%
CCN1CCN(C(c2ccccc2)c2sc3nc(C)nn3c2O)CC1 (configuration not stated) | inconclusive: 124%
O=c1o[nH]c(-c2ccccc2)c1C=Nc1ccc(Cl)cc1 | inconclusive: 92.5%
O=C(NC(=O)c1c(F)cccc1F)O/N=C1\CCCc2occc21 | inconclusive: 146%
C=CC1C(OC2OC(CO)C(O)C(O)C2O)OC=C(C(=O)OC)C1CC1CC(=O)CC(CC(=O)CCc2ccc(O)cc2)O1 (configuration not stated) | inconclusive: 85.5%
Cc1cc(/C=C2\SC(=S)N(C)C2=O)c(C)n1-c1ccc(O)cc1 | inconclusive: 301%
COc1cccc(CN2CCN(C(=O)c3cc(-c4ccccn4)nc4ccc(Cl)cc34)CC2)c1 | inconclusive: 93.4%
CCOC(=O)c1c(C)[nH]c(N=Nc2ccccc2Cl)c1C | inconclusive: 108%
CC1(C)C(=O)OC(c2c3ccccc3cc3ccccc23)C(C)(C)C1=O (configuration not stated) | inconclusive: 247%

An excerpt of these results, field by field:
COc1ccc(C2c3ccc(O)cc3Oc3ncn(Cc4ccco4)c(=N)c32)cc1OC (configuration not stated)
  binding response (% of control): inconclusive: 89.1%
FC(F)(F)c1cccc(-c2nn[nH]n2)c1
  binding response (% of control): inconclusive: 115%
CC(/C=C\c1ccccc1)=C/C(=O)O
  binding response (% of control): inconclusive: 114%
NCCCC[C@H]1CNC(=O)C(=O)N1CCc1cc(C(F)(F)F)cc(C(F)(F)F)c1
  binding response (% of control): inconclusive: 122%

The list continues.

SMILES | binding response (% of control)
CCCOc1ccc(-c2c(C(=O)N/N=C/c3ccc(C)cc3)nnn2-c2nonc2N)cc1 | inconclusive: 142%
NC(=O)CSc1nnc(SCc2ccc(F)cc2)s1 | inactive: 101%
O=C(Nc1ccc(CN2CCCCC2)cc1)c1ccc(Br)o1 | inactive: 104%
O=C(NC(Cc1ccccc1)c1nc2ccccc2[nH]1)c1cccc([N+](=O)[O-])c1 (configuration not stated) | inconclusive: 91.8%
O=C(O)c1ccccc1-n1c2ccccc2c2ccccc21 | inconclusive: 69%
COc1ccc2[nH]cc(/C=C/C(=O)c3ccccc3)c2c1 | inconclusive: 109%
O=C(Nc1ccccc1F)Nc1ccccc1OC(F)F | inconclusive: 96.8%
CN(C)S(=O)(=O)c1cccc(N=C2SCCN2Cc2ccccc2)c1 | inconclusive: 132%
O=C(O)/C=C/c1cn(Cc2ccccc2Cl)nc1-c1ccccc1 | inconclusive: 475%
COc1ccc(CN=C(C#N)C2=C(O)c3ccccc3C2=O)cc1 | inconclusive: 95.6%
COC(=O)COc1ccc2c(=O)c(-c3ccccc3)coc2c1 | inconclusive: -660%
COc1ccc(CCNC(=O)c2cc(-c3cc(C)c(C)cc3O)n[nH]2)cc1OC | inactive: 132%
CCCNC1CCS(=O)(=O)C1 (configuration not stated) | inactive: 101%
COc1ccc(CN2CCC(CO)(Cc3ccccc3C(F)(F)F)CC2)c(F)c1 | inactive: 92.2%
CCOC(=O)Nc1ccccc1C(=O)Nc1cc(C)cc(C)c1 | inconclusive: 92.8%
CCCCOC(=O)Nc1cc(Cl)ccc1C | inactive: 99.6%
O=C1CSC(c2ccccc2)N1c1cccnc1 (configuration not stated) | inconclusive: -17.2%
COCCn1c(SC(C)C(=O)Nc2ccc(Cl)cn2)nnc1-c1ccncc1 (configuration not stated) | inconclusive: 104%
Cc1ccc(C(=O)Nc2ccc(CC(=O)O)cc2)o1 | inactive: 97.7%
COc1cc(NS(=O)(=O)c2ccc3[nH]c(=O)oc3c2)cc(OC)c1 | inactive: 101%
CCCCCCNC(=O)N1C/C=C\C(c2ccc(OC)cc2)N(Cc2ccc(F)cc2)C(=O)C1 (configuration not stated) | inconclusive: 93.5%
Cc1ccc(SCC(=O)c2c(C)nc3ccccn23)cc1 | inconclusive: 320%
Cc1ccccc1Nc1nc(N)nc(CSc2nnnn2C)n1 | inconclusive: 111%

SMILES | binding response (% of control)
O=C(NCCc1c[nH]c2ccccc12)c1cnccn1 | inactive: 97%
COc1ccc(Cc2nnc(N=Nc3c(O)[nH]c4ccc(Br)cc34)[nH]c2=O)cc1 | inconclusive: 107%
c1ccc2c(c1)nc(Nc1ccc(N3CCCCC3)cc1)c1nncn12 | inconclusive: 157%
COC(=O)c1sccc1NC(=S)N1CCN(c2cccc(C)c2C)CC1 | inactive: 104%
S=C(NCc1ccccc1)NNc1nc2ccccc2[nH]1 | inconclusive: 80.7%
COc1ccc2c(Cl)c(C(=O)N/N=C/c3ccc4c(c3)OCO4)sc2c1 | inactive: 98.9%
Cn1nc(Oc2nc(N3CCOCC3)nc(N3CCOCC3)n2)ccc1=O | active: -4.9%
COc1ccc(C(=O)NCc2nnc(SCC(=O)NO)n2Cc2ccccc2)cc1 | inconclusive: 91.6%
CC(C)(C)c1ccc(CS(=O)CC(O)CO)cc1 (configuration not stated) | inactive: 105%
COc1cccc(NC(=O)CSc2ncnc3c2cnn3Cc2ccccc2)c1 | inactive: 96%
Cc1ccccc1OCC(=O)N1N=C(c2cccnc2)CC1(O)C(F)(F)F (configuration not stated) | inactive: 107%
CCn1c(=NC(=O)COc2ccccc2)sc2cccc(F)c21 | inconclusive: 322%
CC1CCC(NC(=O)C2c3ccccc3C(=O)N2Cc2ccc3c(c2)OCO3)CC1 (configuration not stated) | inconclusive: 118%
COC(=O)c1ccc(N)nc1 | inconclusive: 61.2%
C/C(=C/C#N)Nc1ccc(C)cc1 | inconclusive: 113%
Cc1nnc(SCC(=O)NC2CCCCC2C)s1 (configuration not stated) | inactive: 102%
CN1CCN(c2nnc(-c3ccccc3)c(-c3ccccc3)n2)CC1 | inconclusive: 104%
COc1cc(/C=C2/C(=N)N3C(c4ccccc4)=CSC3=NC2=O)ccc1OCC(=O)O | inconclusive: 51.7%
CNC(=O)c1nc(C)n(-c2ccc([N+](=O)[O-])cc2)n1 | inconclusive: 105%
CN(CCCC[C@H](CNCc1ccc(-c2ccccc2)cc1)N1C[C@H](c2ccccc2)N(CCc2ccc(Cl)c(Cl)c2)C(=O)C1=O)Cc1ccc(-c2ccccc2)cc1 | inconclusive: 82.9%
CC1CC(C)CN(C(=O)C(Cc2ccccc2)n2cccc2)C1 (configuration not stated) | inconclusive: 75.1%
CCCC(C)C(=O)OCC(=O)NCc1ccc(OC)c(OC)c1 (configuration not stated) | inactive: 90%
CC(OC(=O)C1=COCCO1)C(=O)Nc1cccc(S(=O)(=O)N2CCOCC2)c1 (configuration not stated) | inconclusive: 136%

SMILES | binding response (% of control)
CSc1ccc(CN2C(=O)NC3(CCCCCC3)C2=O)cc1 | active: 219% [activator]
Cc1ccc(S(=O)(=O)N(C)c2nc3ccccc3[nH]c2=S)cc1 | inconclusive: 72.5%
CCOC(=O)c1nccnc1C(=O)Nc1ccc(C(F)(F)F)cc1 | inconclusive: 85.7%
O=C(Cn1cc2c(n1)CCCCC2)Nc1ccccc1Br | inconclusive: -387%
O=C(O)c1ccc2c(c1)N(Cc1ccccc1)C(=O)c1ccccc1S2 | inconclusive: 121%
CCCc1noc2c1C(c1cc(Br)ccc1F)C(C#N)=C(N)N2 (configuration not stated) | inconclusive: 103%
CN(C)NC(=S)NC1(C)CCS(=O)(=O)C1 (configuration not stated) | inconclusive: 169%
CC(=O)N1CCc2cc(C(=O)CN3CCN(c4ccccn4)CC3)ccc21 | inconclusive: 112%
Cc1coc(=N)n1CC(=O)c1ccc(Cl)cc1 | inactive: 100%
CCCCNC(=O)COC(=O)CNC(=O)c1cc(Cl)cc([N+](=O)[O-])c1 | inactive: 103%
Cc1ccc(C(=O)N/C(=C\c2ccco2)C(=O)N2CCSCC2)cc1C | inconclusive: 91.3%
O=C(NNc1ccccc1F)C1CCC1 | inconclusive: 41.8%
CCc1ccc(S(=O)(=O)Nc2ccc(C)c(NS(C)(=O)=O)c2)cc1 | inconclusive: 91%
COc1cc(NC(=S)NC(=O)c2cc(C)cc(C)c2)ccc1NC(=O)c1cccs1 | inactive: 102%
CC(C)c1ccc(NC(=S)Nc2ccc3[nH]c(=O)[nH]c3c2)cc1 | inconclusive: 145%
CN(C)c1ccc(-c2nc3cnccn3c2Nc2ccc3c(c2)OCCO3)cc1 | inconclusive: 103%
O=C(Nc1ccc(N2CCOCC2)cc1)c1cccc(S(=O)(=O)N2CCCCCC2)c1 | inconclusive: 106%
Nc1ccc(Oc2ccc3c(c2)C(=O)N(CC2CCCO2)C3=O)cc1 (configuration not stated) | inconclusive: 242%
COc1ccc(/C=C/C(=O)c2ccccc2)c(OC)c1 | inconclusive: 105%
CCc1cc(C(=O)O)c(NC(=O)/C=C/c2ccc(OC)cc2)s1 | inconclusive: 15.7%
CCc1nn(-c2ccccc2)c2c1-c1cc(OC)c(OC)cc1C1(N2)C(=O)Nc2ccccc21 (configuration not stated) | inactive: 92.2%
CCOC(=O)Cc1csc(NC(=O)Nc2ccc(OC(F)(F)F)cc2)n1 | inconclusive: 109%
COCCCNC(=O)Cn1c(=O)n(Cc2ccccc2Cl)c(=O)c2cc(OC)c(OC)cc21 | inconclusive: 104%

3 structures out of the list, ordered by molecular weight, descending.
SMILES | binding response (% of control)
CCc1nn(-c2ccccc2)c2c1-c1cc(OC)c(OC)cc1C1(N2)C(=O)Nc2ccccc21 (configuration not stated) | inactive: 92.2%
O=C(Cn1cc2c(n1)CCCCC2)Nc1ccccc1Br | inconclusive: -387%
CCOC(=O)c1nccnc1C(=O)Nc1ccc(C(F)(F)F)cc1 | inconclusive: 85.7%
